Reference: US4849345A, “L-phenylalanine dehydrogenase and use thereof” (priority 1985, dated 1989)

Tests used:
[1] = biological target: T1, L-phenylalanine dehydrogenase produced by Sporosarcina ureae SCRC-R04 (Sporosarcina ureae, UniProt P97014); assay: Substrate and coenzyme specificity, oxidative deamination (Sporosarcina enzyme); type: biochemical
T1 sequence (P97014 1-379): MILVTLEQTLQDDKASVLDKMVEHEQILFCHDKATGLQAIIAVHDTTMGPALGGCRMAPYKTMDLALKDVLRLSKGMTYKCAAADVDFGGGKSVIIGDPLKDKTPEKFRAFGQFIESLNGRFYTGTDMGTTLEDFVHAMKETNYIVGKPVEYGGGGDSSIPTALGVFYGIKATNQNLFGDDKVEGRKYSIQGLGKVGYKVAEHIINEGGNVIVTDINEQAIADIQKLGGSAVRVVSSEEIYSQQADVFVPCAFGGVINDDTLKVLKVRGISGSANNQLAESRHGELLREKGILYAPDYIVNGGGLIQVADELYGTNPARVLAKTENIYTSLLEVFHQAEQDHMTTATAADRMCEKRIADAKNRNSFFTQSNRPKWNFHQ
Method: The substrate concentration is 10 mM, except for the L-tyrosine concentration which is 1.4 mM.

[2] = biological target: T2, L-phenylalanine dehydrogenase produced by Bacillus sp. SCRC-R79a (Lysinibacillus sphaericus, UniProt P23307); assay: Substrate and coenzyme specificity, oxidative deamination (Bacillus enzyme); type: biochemical; design: inoculated with Bacillus sp; endogenous in cells; host or cells: Bacillus sp; enzyme purified in house
T2 sequence (P23307 1-381): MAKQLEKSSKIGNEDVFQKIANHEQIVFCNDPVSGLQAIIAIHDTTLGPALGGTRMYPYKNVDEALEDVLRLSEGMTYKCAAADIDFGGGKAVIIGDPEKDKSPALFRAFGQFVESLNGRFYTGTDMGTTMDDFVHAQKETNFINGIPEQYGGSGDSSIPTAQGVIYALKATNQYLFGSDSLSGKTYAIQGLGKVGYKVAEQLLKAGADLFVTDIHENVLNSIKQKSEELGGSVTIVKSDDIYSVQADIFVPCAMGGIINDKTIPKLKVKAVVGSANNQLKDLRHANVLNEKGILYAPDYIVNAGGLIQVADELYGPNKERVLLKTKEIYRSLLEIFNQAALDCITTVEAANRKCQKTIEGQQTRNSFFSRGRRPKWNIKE
Method: The substrate concentration is 10 mM except for the L-tyrosine concentration which is 1.4 mM.

For NCCC[C@H](N)C(=O)O [L-ornithine], the “action of the enzyme on the amino acid as substrate (in words)” value [1] was “cannot serve as a substrate” and the “action of the enzyme on the amino acid as substrate (in words)” value [2] was “cannot serve as a substrate”.
